Assay results as given in patent EP0938338B1, “CARRIER COMPOSITION FOR INFLUENCING THE TIGHT JUNCTION PERMEABILITY” (Ghyssaert, Joris Rosa Michael, priority 1996, dated 1998).
For at least one compound, name, drawing or mass did not settle the structure.

The chains behind the UniProt entries cited, without tags or fusion partners.
UniProt P08659, whole entry: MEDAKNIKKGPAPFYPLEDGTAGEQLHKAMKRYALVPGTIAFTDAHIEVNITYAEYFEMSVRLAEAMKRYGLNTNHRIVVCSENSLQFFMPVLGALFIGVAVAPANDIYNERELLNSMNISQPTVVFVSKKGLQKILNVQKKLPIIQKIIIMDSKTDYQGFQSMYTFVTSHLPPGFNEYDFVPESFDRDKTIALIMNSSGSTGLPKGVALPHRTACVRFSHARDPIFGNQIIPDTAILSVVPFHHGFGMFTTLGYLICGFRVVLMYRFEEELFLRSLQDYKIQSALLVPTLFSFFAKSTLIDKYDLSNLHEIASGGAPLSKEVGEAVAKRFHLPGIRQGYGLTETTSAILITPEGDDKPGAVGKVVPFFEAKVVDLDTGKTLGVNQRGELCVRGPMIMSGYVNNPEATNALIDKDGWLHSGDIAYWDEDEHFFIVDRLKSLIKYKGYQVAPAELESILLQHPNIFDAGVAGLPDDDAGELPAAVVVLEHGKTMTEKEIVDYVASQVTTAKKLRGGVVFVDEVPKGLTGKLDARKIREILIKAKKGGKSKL

Assays:
large intestine = experiment: Colon perfusion: secretory effect of rhein (water, sodium, K+) and its antagonism; assay type: in vivo
[1] = system: monocellular mucosal layer of the guinea-pig colon; experiment: ATP content of lyophilised colon mucosa (firefly bioluminescence); assay type: in vivo, Guinea pigs; details: 3.76 mg rhein in ligated colonic segment
Experimental: The ATP content was measured in the monocellular mucosal layer of the guinea-pig colon.
Guinea pigs with a weight (mean ± 400 g) were fasted 12 hours before the experiments. Anaesthesia was induced by intraperitoneal injection of Ethylurethane (0.9 g.kg^-1).
The segment was filled with 4.0 ml of the solution to be tested. The intestinal cavity was immediately sealed again. After the experiment the colon segment was removed and submerged in liquid Nitrogen. The gut specimen was transferred to the precooled lyophylisator (-80°C, sample -20°C) and lyophilised during 36 hours. Microscopically, the mono cellular mucosa layer was scraped off. One segment, proceeding this way normally yield 1.5 - 2.0 mg lyophilised mucosa cells. 1.000 mg mucosa was weighted carefully on a microbalans and homogenised with 100.00 mg lactose. The ATP level was measured on 3.000 mg of this mixture.
ATP was measured following the firefly-bioluminescence system on a LKB Wallac 1250, fitted with a 1250 display. […]
For the blank experiment 200 µl Luciferine-Luciferase solution was mixed with 500 µl TRIS-EDTA buffer solution. The light emission was measured following the addition of standard amounts of ATP.
3.000 mg of the mucosa/lactose mixture was suspended in 800 µl TRIS-EDTA buffer solution. […] Known quantities of ATP were added.

[2] = molecular target: Lucerferin -Luciferase complex (Photinus pyralis, UniProt P08659); experiment: Interference with Luciferin-Luciferase light emission; assay type: biochemical; details: concentration of Rhein recovered in the experiment

## O=C(OC[C@H]1O[C@@H](OC(=O)c2cc(O)c(O)c(O)c2)[C@H](OC(=O)c2cc(O)c(O)c(O)c2)[C@@H](OC(=O)c2cc(O)c(O)c(O)c2)[C@@H]1OC(=O)c1cc(O)c(O)c(O)c1)c1cc(O)c(O)c(O)c1 [pentagalloylglucose]
Large intestine; perfused after rhein or together with rhein, Fig. 6, Fig. 7
  effect on the secretory effect of rhein: inhibit completely the secretory effect of rhein

## O=C(O)c1cc(O)c2c(c1)C(=O)c1cccc(O)c1C2=O [rhein]
Large intestine; colon perfusion
  K+ concentration: significant rise in K+ concentration
  sodium absorption: inhibition of sodium absorption
Large intestine; rhein alone, Fig. 6
  secretion of water in the colon: opens the tight junctions resulting in secretion of water in the colon
[1]
  first effect on ATP concentration (latency time): 30 min
[2]
  effect on Luciferin-Luciferase complex: inhibiting effect
